Experimental findings from the supplement of paper PMC4635364 are described below.

Some of the results follow. This data set is noisy: repeats of one test often differ as much as different tests do.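 ReNCell VM, a human fetal ventral-midbrain neural progenitor line, was differentiated without mitogens. Blinded raters scored images stained for doublecortin (early neurons) or tyrosine hydroxylase (dopaminergic neurons) against untreated wells (0 = no change). Scores were averaged across repeats and both raters, and compounds averaging 2 or more were selected as hits for retesting.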

This assay relates to ReNCell VM. The experiment in a line: neuronal differentiation score (DCX+ cell fraction vs untreated, manual image score) (score (-3 to 3)); higher = more neuronal differentiation. Particulars: library: Spectrum; 2 uM; 2 weeks.
With `NC(=O)NS(=O)(=O)c1ccc(N)cc1`, the neuronal differentiation score was inactive: 0.

For `CCCCOc1ccc(CC(=O)NO)cc1`, the neuronal differentiation score is inactive: 0.

Consider `CC(C)(C)NC[C@H](O)COc1ccccc1C1CCCC1`, for which the neuronal differentiation score is inactive: -1.

With `CCOc1cc(CC(=O)N[C@@H](CC(C)C)c2ccccc2N2CCCCC2)ccc1C(=O)O`, the neuronal differentiation score is inactive: 0.

In the case of `CO/N=C(\C(=O)N[C@@H]1C(=O)N2C(C(=O)O)=C(COC(N)=O)CS[C@H]12)c1ccco1`, the neuronal differentiation score was active: 3.

`CC1(C)C(O[C@@H]2OC[C@@H](O)[C@H](O)[C@H]2O)CC[C@]23CC24CC[C@]2(C)[C@@H]([C@@]5(C)CC[C@@H](C(C)(C)O)O5)[C@H](O)C[C@@]2(C)C4C[C@@H](O[C@@H]2O[C@H](CO)[C@@H](O)[C@H](O)[C@H]2O)C13` (some centres not stated): the neuronal differentiation score is inactive: 0.

In the case of `CC(N/C(=N\C#N)Nc1ccncc1)C(C)(C)C` (configuration not stated), the neuronal differentiation score was inactive: 0.

Consider `CC(C)NNC(=O)c1ccncc1`, for which the neuronal differentiation score was inactive: 0.

On to `COc1cc(C)c(C(=O)Oc2cc(C)c(C(=O)O)c(O)c2C)c(OC)c1C`, for which the neuronal differentiation score was inactive: 0.

For the compound `COc1ccc2c(c1)c(CC(=O)OCC(=O)O)c(C)n2C(=O)c1ccc(Cl)cc1`, the neuronal differentiation score is inactive: 0.

On to `CC1=CC(=O)NS(=O)(=O)O1`, for which the neuronal differentiation score is inactive: 0.

With `CC(=O)O[C@H]1CC[C@@]2(C)[C@@H](CC[C@@H]3[C@@H]2CC(=O)[C@]2(C)[C@@H]4[C@H](C[C@@H]32)O[C@]2(CC[C@@H](C)CO2)[C@H]4C)C1`, the neuronal differentiation score is inactive: 0.
